According to patent US9181184B2 (Amicus Therapeutics, Inc., priority 2005, dated 2015):
At least one structure is not confirmed: it was looked up by name or label, or the drawing left a doubt.

Biological target: acid α-glucosidase (Gaa) in PM11 (P545L) fibroblast cell line (Homo sapiens (Human), UniProt P10253, P545L)
Experiment: Gaa enhancement in PM11 Pompe fibroblasts (4-MU-α-D-glu enzyme activity assay)
Assay type: cell-based
Procedure: The PM11 (P545L), PM8 and PM12 (both slicing defect), fibroblast cell lines was used for enhancement experiments. These cells are fibroblasts isolated from a Pompe patient. Cells were seeded at about 5000 cells per well in 180 μL media in sterile black clear-bottom 96 well Costar plates and incubated for about 3-6 hours at 37° C. with 5% CO2. Media consisted of DMEM with 10% FBS and 1% penicillin/streptomycin.
All test compounds are dissolved in 1:1 DMSO:H2O to a stock concentration of 100 mM. Serial dilutions of the cells using another sterile black clear-bottom Costar plate were performed as follows:
5. The plate was incubated at 37° C., 5% CO2 for 6 days with day 1 equal to the day of dosing.
Fluorescence counts were background subtracted.

OC[C@@H]1[C@@H](O)[C@H](O)[C@@H](O)CN1CC1CC1 [Compound 11, N-Cyclopropylmethyl-1-deoxynojirimycin]
Gaa activity compared to untreated control cells: dose-dependent increases
